No constants are given. Whether binding was seen depends on the method and setting. In cells and extracts the contact can be indirect. Some binding calls cover weakened binding; strength is not graded here. Sequences can lack the tags named with a protein.

Amino acid sequences for entries named in this document (tags omitted).
UniProt Q15691: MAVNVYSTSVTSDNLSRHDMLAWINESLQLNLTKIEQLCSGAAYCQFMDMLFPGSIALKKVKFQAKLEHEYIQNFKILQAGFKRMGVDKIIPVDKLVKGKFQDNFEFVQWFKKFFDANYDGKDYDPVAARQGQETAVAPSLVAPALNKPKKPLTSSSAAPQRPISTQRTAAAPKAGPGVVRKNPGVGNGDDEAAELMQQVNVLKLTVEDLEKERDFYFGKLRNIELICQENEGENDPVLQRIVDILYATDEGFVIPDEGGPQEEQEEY

The experiment concerns the target GFP-EB1 (UniProt Q15691). As to the kind of experiment: co-IP; HeLa cell extracts, co-transfected HA-KLHL21 with GFP-EB1 or GFP; GFP-fused proteins precipitated with GFP-Trap agarose beads (legend: anti-GFP antibodies), 2 h at 4 °C, washed five times with TBS-T; immunoblot with anti-GFP and HA antibodies. (In general: In western blotting, separated proteins are transferred to a membrane and probed.)

B1: HA-KLHL21 (protein, UniProt Q9UJP4 1-597)
chain: MERPAPLAVLPFSDPAHALSLLRGLSQLRAERKFLDVTLEAAGGRDFPAHRAVLAAASPYFRAMFAGQLRESRAERVRLHGVPPDMLQLLLDFSYTGRVAVSGDNAEPLLRAADLLQFPAVKEACGAFLQQQLDLANCLDMQDFAEAFSCSGLASAAQRFILRHVGELGAEQLERLPLARLLRYLRDDGLCVPKEEAAYQLALRWVRADPPRRAAHWPQLLEAVRLPFVRRFYLLAHVEAEPLVARCPPCLRLLREARDFQAARYDRHDRGPCPRMRPRPSTGLAEILVLVGGCDQDCDELVTVDCYNPQTGQWRYLAEFPDHLGGGYSIVALGNDIYVTGGSDGSRLYDCVWRYNSSVNEWAEVAPMLKAREYHSSSVLDGLLYVVAADSTERYDHTTDSWEALQPMTYPMDNCSTTACRGRLYAIGSLAGKETMVMQCYDPDTDLWSLVDCGQLPPWSFAPKTATLNGLMYFVRDDSAEVDVYNPTRNEWDKIPSMNQVHVGGSLAVLGGKLYVSGGYDNTFELSDVVEAYDPETRAWSVVGRLPEPTFWHGSVSIFRQFMPQTFSGGRGFELDSGSDDMDPGRPRPPRDPDELH
As to B1, the binding entry is on record as “binds”.

For the origin of these results see article PMC5031805.
